# Some of the results follow. Shown are side measurements of this screen, not its main read-out; they come without a call. Most of these compounds were active or inconclusive in the main read-out, so they are no random draw. The note in brackets gives the kind of curve behind each potency; many fits are weak.
# Test: IkB Signaling
# Details: ABC-DLBCL IkBa-CBG/CBR dual luciferase ratio (green luciferase fused to IkBa over red control in OCI-Ly3 lymphoma cells), 4 h
# In short: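 In this assay, an IκBα–CBG68 fusion accumulates when IKK-driven degradation is blocked; native CBR normalizes for cell number. OCI-Ly3 cells were treated 4 h with compound and doxycycline, then green and red light read after Chroma-Glo addition.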
# [1] = measured here: control luc red channel unless noted
# [2] = measured here: IkB-luc green channel
# [3] = measured here: control luc red channel
smiles,measurement,setting,value
CCC(Sc1nnc(-c2ccc(OC)c(OC)c2)c(-c2ccc(OC)c(OC)c2)n1)C(=O)NC1CCCC1 (stereo not drawn),AC50,[1],"2.51 µM [rising, partial curve]"
CCc1ccc(N/C(SCc2cccc(F)c2)=C(/C#N)C(=O)NCc2ccco2)cc1,AC50,[1],"5.01 µM [falling, partial curve]"
CCc1ccc(NC(=O)C(Cc2ccccc2)NS(=O)(=O)c2ccc3c(c2)c(=O)n(C)c(=O)n3C)cc1 (stereo not drawn),AC50,[1],"15.8 µM [falling, partial curve]"
CCCOc1ccc(Oc2nc(NCC(C)C)nc(N(C)C)n2)nn1,AC50,[1],"25.1 µM [falling, single point]"
CCn1c(SCC(=O)Nc2ccc3c(c2)c2ccccc2n3CC)nnc1-c1ccco1,AC50,[1],"10 µM [falling, partial curve]"
On1onc2c3cc(-c4ccccc4)nc3ccc21,AC50,[1],"20 µM [falling, partial curve]"
O=[N+]([O-])c1ccc(F)cc1F,AC50,[1],"39.8 µM [rising, single point] [measured here: IkB-luc green channel]"
CCOc1ccc(C(=O)Nc2ccc(-n3nncc3-c3ccc(OC)cc3)cc2)cc1,AC50,[1],"20 µM [falling, single point]"
COc1ccc(CCn2c(N)c(C(=O)NCc3ccco3)c3nc4ccccc4nc32)cc1OC,AC50,[1],"12.6 µM [falling, partial curve]"
COc1ccccc1NC(=O)C1=C(C)Nc2nc(-c3ccco3)nn2C1c1ccccc1F (stereo not drawn),AC50,[1],"12.6 µM [falling, partial curve]"
Cc1cc(F)ccc1S(=O)(=O)Nc1ccccc1C(=O)Nc1ccc2[nH]c(=O)[nH]c2c1,AC50,[1],"15.8 µM [falling, partial curve]"
CC(=O)c1ccc(NC(=O)CCc2c(C)nn(-c3ccc4nnc(C)n4n3)c2C)cc1,AC50,[1],"39.8 µM [falling, partial curve, poor fit]"
Nc1c(S(=O)(=O)c2cccs2)c2nc3ccccc3nc2n1Cc1ccc2c(c1)OCO2,AC50,[1],"7.94 µM [falling, full curve]"
O=C(CSc1nc(-c2ccccc2)nc2cc(=O)[nH]n12)Nc1ccccc1,AC50,[1],"39.8 µM [falling, single point]"
CCc1nc(-c2ccc(C)c(S(=O)(=O)N3CCN(c4ccc(C(C)=O)cc4)CC3)c2)no1,AC50,[1],"1.26 µM [rising, partial curve]"
Cc1ccccc1C(=O)N1c2ncnn2C2(CCCCC2)[C@@H]2CCCC[C@@H]21,AC50,[1],"25.1 µM [falling, partial curve, poor fit]"
CC(C)Nc1nc2c(-c3cccc(Br)c3)nnn2c2ccccc12,AC50,[1],"0.0126 µM [falling, full curve]"
CCc1c(C)sc2c1CCN(C(=O)Nc1cc(C)ccc1C)C2c1ccc(OC)cc1 (stereo not drawn),AC50,[1],"39.8 µM [falling, single point]"
Cc1nc(-c2cccc(S(=O)(=O)N3CCC(C(=O)NCc4ccccc4Cl)CC3)c2)no1,AC50,[1],"3.16 µM [falling, single point]"
Cn1nc(-c2ccccc2F)c2cc(C(=O)NCc3cccc(Cl)c3)sc21,AC50,[1],"10 µM [falling, partial curve]"
Cc1cc(C)cc(NC(=O)c2cc(S(=O)(=O)N3CCCC3)ccc2F)c1,AC50,[1],"20 µM [falling, partial curve]"
Cc1ccc(C)c(NC(=O)c2nnn(Cc3ccc(F)cc3Cl)c2N)c1,AC50,[1],"31.6 µM [falling, partial curve]"
O=C(NCCc1ccccc1)c1cnc2sc(N3CCCCC3)nn2c1=O,AC50,[1],"0.251 µM [rising, full curve]"
COc1cc(OC)c(NC(=O)N2CCc3cc(S(=O)(=O)N4CCC(C)CC4)ccc32)cc1Cl,AC50,[1],"31.6 µM [falling, single point]"
Cc1ccc2[nH]c(=O)c(C(c3nnnn3C(C)(C)C)N(Cc3ccco3)CC3CCCO3)cc2c1 (stereo not drawn),AC50,[1],"15.8 µM [rising, partial curve] [measured here: IkB-luc green channel]"
O=C(c1cc2c(s1)-c1ccccc1OC2)N1CCN(c2ccc(F)cc2)CC1,AC50,[1],"10 µM [falling, partial curve]"
COc1ccc(C(=O)CN2CCN(c3ccc(F)cc3)CC2)cc1OC,AC50,[1],"25.1 µM [falling, partial curve]"
Cc1ccccc1Nc1nc(N)nc(COC(=O)CCS(=O)(=O)c2ccccc2)n1,AC50,[1],"12.6 µM [falling, partial curve]"
COc1ccc(NC(=O)Cn2c(=O)n(Cc3ccco3)c(=O)c3oc4ccccc4c32)cc1Cl,AC50,[1],"6.31 µM [falling, partial curve]"
CC1CCc2nc(NC(=O)CN3CCN(Cc4ccc5c(c4)OCO5)CC3)sc2C1 (stereo not drawn),AC50,[1],"12.6 µM [falling, partial curve]"
Cc1ccccc1CNCc1c(C(=O)O)c(C)n(Cc2ccc(F)cc2Cl)c1C,AC50,[1],"10 µM [falling, partial curve]"
COc1ccc(-n2ncc3c2ncn2nc(Cc4ccccc4)nc32)cc1,AC50,[1],"15.8 µM [falling, partial curve]"
CC(=O)Nc1ccc(C(=O)Nc2ccc3c(c2)N(C2CCCC2)C(=O)c2ccccc2S3)cc1,AC50,[1],"3.16 µM [falling, partial curve]"
Clc1ccccc1CN1CCc2nc(N3CCN(c4ncccn4)CC3)ncc2C1,AC50,[1],"25.1 µM [falling, partial curve]"
O=C(Nc1ccc(F)cc1)c1cc2cc3ccc(Cl)cc3nc2o1,AC50,[1],"2.51 µM [rising, full curve]"
Cc1oc(-c2ccccc2Cl)nc1CS(=O)(=O)CC(=O)NC(C)c1ccccc1 (stereo not drawn),AC50,[1],"15.8 µM [falling, partial curve]"
CCOc1ccccc1CNC(=O)CSc1nnc(C)c2c(C)n(-c3ccccc3)nc12,AC50,[1],"7.94 µM [falling, partial curve]"
Cc1ccc(S(=O)(=O)c2c(N)n(CC3CCOC3)c3nc4ccccc4nc23)cc1 (stereo not drawn),AC50,[1],"20 µM [falling, partial curve]"
Cc1ccc(CN(C(=O)COc2ccc([N+](=O)[O-])cc2)c2ccccn2)o1,AC50,[1],"7.94 µM [falling, full curve, poor fit]"
Cc1ccc(Nc2ncc(C(=O)Nc3ccc(F)cc3F)c3ccccc23)cc1Cl,AC50,[1],"3.16 µM [falling, full curve, poor fit]"
COc1ccc(CNC(=O)c2nn(C)c3c2CS(=O)(=O)c2ccccc2-3)cc1,AC50,[1],"25.1 µM [falling, single point]"
O=C(COc1ccccc1)Nc1nnc(SCc2cc(=O)n3cc(Cl)ccc3n2)s1,AC50,[1],"3.98 µM [falling, partial curve]"
COc1ccc(CCNC(=O)CCS(=O)(=O)c2cc3c(cc2Cl)NC(=O)CO3)cc1OC,AC50,[1],"0.0794 µM [rising, full curve]"
CCc1nnc(SCC(=O)Nc2cccc(C(F)(F)F)c2)c2cc3oc(C)cc3n12,AC50,[1],"12.6 µM [falling, partial curve]"
CCOC(=O)Cc1c(C)nc2c(-c3ccc(Cl)cc3)c(C(F)(F)F)nn2c1C,AC50,[1],"10 µM [falling, partial curve]"
CCCc1nn2cc(-c3ccc(C)c(C)c3)nc2s1,AC50,[1],"15.8 µM [falling, partial curve]"
COc1ccc(/C=C/C(=O)Nc2ccc3nc4c(c(Nc5ccc(OC)c(OC)c5)c3c2)CCCC4)cc1,AC50,[1],"10 µM [falling, partial curve]"
COc1ccc(-c2noc(CSc3nnc(Cc4ccccc4)n3-c3cccc(C)c3)n2)cc1,AC50,[1],"25.1 µM [falling, partial curve]"
Cc1ccc(NC(=O)c2oc3ccccc3c2NC(=O)C23CC4CC(CC(C4)C2)C3)cc1,AC50,[1],"39.8 µM [falling, single point]"
Cc1ccc(C(=O)NCc2ccccc2)cc1NC(=O)c1nsc2ccccc12,AC50,[1],"7.94 µM [falling, partial curve]"
C=C(C)COc1ccc(-c2n[nH]c(C)c2-c2ccccc2)c(O)c1,AC50,[1],"31.6 µM [falling, single point]"
Cn1cc(C(=O)NCCc2ccccc2)c(=O)c2cc(S(=O)(=O)N3CCCCC3)ccc21,AC50,[1],"7.94 µM [falling, partial curve]"
CC(C)(C)OC(=O)N1CCC(c2c(C(=O)N3CCN(Cc4ccccc4)CC3)cnn2-c2ccc(Cl)cc2)CC1,AC50,[1],"39.8 µM [falling, single point]"
c1ccc2c(c1)CCN(c1ncnc3nc[nH]c13)C2,AC50,[2],"2.51 µM [rising, full curve]"
same,AC50,[3],"1.26 µM [rising, full curve]"
CCc1ccc(OCC(=O)Nc2cc(-c3nc4cc(C)ccc4o3)ccc2C)cc1,AC50,[1],"0.794 µM [falling, full curve]"
O=S(=O)(c1cccc2c(Cl)cccc12)N1CCCNCC1,AC50,[1],"39.8 µM [falling, partial curve, poor fit]"
COc1ccc(S(=O)(=O)N2CCCC(C(=O)Nc3cccc(C(C)=O)c3)C2)cc1 (stereo not drawn),AC50,[1],"15.8 µM [falling, partial curve]"
Cc1cc(Nc2ccccc2Br)n2nc(C)nc2n1,AC50,[1],"15.8 µM [rising, partial curve]"
O=C(NCCN1CCOCC1)c1cc(-c2cccs2)on1,AC50,[2],"25.1 µM [rising, partial curve]"
same,AC50,[3],"20 µM [rising, partial curve]"
CCC1CCCCN1C(=O)CCS(=O)(=O)c1cc2c(cc1C)NC(=O)CO2 (stereo not drawn),AC50,[1],"12.6 µM [falling, partial curve]"
Cc1ccc(Nc2c(-c3ccc(C)o3)nc3cccc(C)n23)cc1,AC50,[1],"25.1 µM [falling, partial curve]"

# Random excerpt: five entries already listed.
smiles,measurement,setting,value
CCC(Sc1nnc(-c2ccc(OC)c(OC)c2)c(-c2ccc(OC)c(OC)c2)n1)C(=O)NC1CCCC1 (stereo not drawn),AC50,[1],"2.51 µM [rising, partial curve]"
CCn1c(SCC(=O)Nc2ccc3c(c2)c2ccccc2n3CC)nnc1-c1ccco1,AC50,[1],"10 µM [falling, partial curve]"
CCc1c(C)sc2c1CCN(C(=O)Nc1cc(C)ccc1C)C2c1ccc(OC)cc1 (stereo not drawn),AC50,[1],"39.8 µM [falling, single point]"
Cc1ccc(NC(=O)c2oc3ccccc3c2NC(=O)C23CC4CC(CC(C4)C2)C3)cc1,AC50,[1],"39.8 µM [falling, single point]"
CCc1nnc(SCC(=O)Nc2cccc(C(F)(F)F)c2)c2cc3oc(C)cc3n12,AC50,[1],"12.6 µM [falling, partial curve]"
